In paper PMC6195609:
No constants are given. Whether binding was seen depends on the method and setting. Binding seen in cells or lysates may run through a third protein. Some binding calls cover weakened binding; strength is not graded here.

Chains of the proteins cited; added tags and fusions are not shown. Lines headed by an entry give the natural chain unless they say otherwise; changes in a name come on top.
UniProt Q5VZM2: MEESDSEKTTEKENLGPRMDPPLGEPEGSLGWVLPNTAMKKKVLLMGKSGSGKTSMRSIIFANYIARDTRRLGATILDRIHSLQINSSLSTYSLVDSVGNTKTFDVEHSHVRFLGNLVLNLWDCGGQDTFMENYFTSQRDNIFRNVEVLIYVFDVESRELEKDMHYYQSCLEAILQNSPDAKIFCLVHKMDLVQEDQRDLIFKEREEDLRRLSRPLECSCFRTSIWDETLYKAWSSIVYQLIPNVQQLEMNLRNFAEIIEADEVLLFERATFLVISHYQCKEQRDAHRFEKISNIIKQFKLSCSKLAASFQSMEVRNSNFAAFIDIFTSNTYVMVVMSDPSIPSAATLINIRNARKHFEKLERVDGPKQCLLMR
UniProt O75140: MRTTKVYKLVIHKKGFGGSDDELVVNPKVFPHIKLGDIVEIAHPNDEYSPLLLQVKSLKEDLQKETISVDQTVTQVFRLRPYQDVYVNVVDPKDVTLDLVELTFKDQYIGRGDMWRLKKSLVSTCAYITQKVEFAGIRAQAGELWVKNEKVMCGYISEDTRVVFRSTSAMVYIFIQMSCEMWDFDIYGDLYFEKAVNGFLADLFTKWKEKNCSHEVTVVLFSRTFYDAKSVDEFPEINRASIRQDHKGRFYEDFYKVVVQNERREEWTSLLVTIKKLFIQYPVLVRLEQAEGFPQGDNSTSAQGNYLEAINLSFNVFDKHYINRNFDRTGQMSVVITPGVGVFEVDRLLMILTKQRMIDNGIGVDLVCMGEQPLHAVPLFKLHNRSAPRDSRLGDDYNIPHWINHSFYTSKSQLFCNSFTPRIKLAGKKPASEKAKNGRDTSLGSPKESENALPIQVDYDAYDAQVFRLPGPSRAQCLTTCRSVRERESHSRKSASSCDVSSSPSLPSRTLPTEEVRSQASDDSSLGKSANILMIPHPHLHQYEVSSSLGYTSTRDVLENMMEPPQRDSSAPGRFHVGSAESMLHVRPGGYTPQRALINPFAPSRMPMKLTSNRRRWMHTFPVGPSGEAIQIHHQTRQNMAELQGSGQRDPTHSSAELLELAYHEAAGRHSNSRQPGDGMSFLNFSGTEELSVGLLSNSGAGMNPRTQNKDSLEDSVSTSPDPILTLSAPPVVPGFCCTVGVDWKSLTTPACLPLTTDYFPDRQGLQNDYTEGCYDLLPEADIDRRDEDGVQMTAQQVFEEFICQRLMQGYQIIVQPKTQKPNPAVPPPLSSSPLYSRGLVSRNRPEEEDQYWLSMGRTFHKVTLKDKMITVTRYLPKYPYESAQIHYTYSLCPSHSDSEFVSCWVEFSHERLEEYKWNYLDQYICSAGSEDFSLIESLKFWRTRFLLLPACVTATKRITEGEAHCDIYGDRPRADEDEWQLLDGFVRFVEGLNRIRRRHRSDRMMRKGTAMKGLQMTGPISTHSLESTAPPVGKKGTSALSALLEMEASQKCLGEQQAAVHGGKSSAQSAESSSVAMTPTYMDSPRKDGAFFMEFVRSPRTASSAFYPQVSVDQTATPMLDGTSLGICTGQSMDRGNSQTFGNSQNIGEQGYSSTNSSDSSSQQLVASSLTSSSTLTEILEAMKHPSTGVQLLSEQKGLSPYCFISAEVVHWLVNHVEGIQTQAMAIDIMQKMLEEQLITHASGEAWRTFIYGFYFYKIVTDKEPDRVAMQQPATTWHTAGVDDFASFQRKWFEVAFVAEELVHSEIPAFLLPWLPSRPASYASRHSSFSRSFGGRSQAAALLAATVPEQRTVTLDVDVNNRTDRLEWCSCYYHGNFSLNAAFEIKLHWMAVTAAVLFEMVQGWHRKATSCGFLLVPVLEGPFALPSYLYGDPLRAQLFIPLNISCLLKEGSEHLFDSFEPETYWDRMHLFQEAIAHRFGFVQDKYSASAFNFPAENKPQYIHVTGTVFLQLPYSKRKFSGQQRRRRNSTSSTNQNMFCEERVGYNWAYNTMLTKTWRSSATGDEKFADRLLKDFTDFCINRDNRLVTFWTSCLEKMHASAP

Molecular target: RagB (endogenous) (human (endogenous in HEK293)) (UniProt Q5VZM2)
Assay: co-IP; HEK293 cells transiently transfected with the components of GATOR1, with or without CA-Src, kinase-dead Src (K295R) or WT-Src, with or without PP2 (5 uM, 24 h); interaction with RagA, RagB or RagC tested (RagC immunoprecipitation in Fig. 4e, f)

binding: binds
Substance: GATOR1 (transfected components Depdc5, Nprl2 and Nprl3) (from UniProt O75140 1-1603; Q8WTW4 1-380; Q12980 1-569) (complex)
